Results deposited as PubChem BioAssay AID602196 (INSERM, 2012).
Purpose: 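Knock-downs that protect lung cancer cells from cisplatin or sensitise them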. System: human A549 lung cancer cells. Reagents: siRNA pair against human genes. Duration: 48 h transfection before cisplatin; time from cisplatin to read-out not stated. Treatment: cisplatin at a dose killing half of control-siRNA cells; exact dose and duration not given. Measurement: 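Cisplatin cell death as a shift from the 50% death seen with control siRNA; siRNAs toxic or growth-blocking alone scored 0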. Reading the numbers: two-siRNA summed score (-2 to +2): higher = both siRNAs protect from cisplatin killing; -2 means both sensitise; mean protection from cisplatin (shift in death): higher = protection from cisplatin killing. Hit rule: 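siRNAs harmful alone (LDH or WST-1) get 0; others get +1 for less and -1 for more cisplatin killing; genes are active when the two siRNAs give the same sign, summing to ±2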. Calls: active = both siRNAs shift cisplatin killing the same way; inactive = no consistent shift, or siRNA harmful alone.
Shown is one part, drawn at random, of about 23,000 deposited reagents. 455 of all reagents (2%) were called active. 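Active includes both protection and sensitisation; some change values fall well beyond the stated -50 to +50 range.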 Unmarked entries are inactive. Not all columns of the deposit are shown. No sequences are given here. Not stated in the record: the amount of reagent.

{"gene":"LOC389642","two-siRNA summed score (-2 to +2)":0,"mean protection from cisplatin (shift in death) (%)":0}
{"gene":"SMPD2","two-siRNA summed score (-2 to +2)":1,"mean protection from cisplatin (shift in death) (%)":15}
{"gene":"FOXA3","two-siRNA summed score (-2 to +2)":1,"mean protection from cisplatin (shift in death) (%)":9.3}
{"gene":"ASB14","two-siRNA summed score (-2 to +2)":-1,"mean protection from cisplatin (shift in death) (%)":-18}
{"gene":"FRAT1","two-siRNA summed score (-2 to +2)":0,"mean protection from cisplatin (shift in death) (%)":5.2}
{"gene":"SLC45A3","two-siRNA summed score (-2 to +2)":0,"mean protection from cisplatin (shift in death) (%)":9.1}
{"gene":"RERGL","two-siRNA summed score (-2 to +2)":0,"mean protection from cisplatin (shift in death) (%)":12.6}
{"gene":"HOOK1","two-siRNA summed score (-2 to +2)":0,"mean protection from cisplatin (shift in death) (%)":7.6}
{"gene":"CMTM2","two-siRNA summed score (-2 to +2)":0,"mean protection from cisplatin (shift in death) (%)":-2}
{"gene":"TEKT1","two-siRNA summed score (-2 to +2)":0,"mean protection from cisplatin (shift in death) (%)":-0.1}
{"gene":"LRIG1","two-siRNA summed score (-2 to +2)":-1,"mean protection from cisplatin (shift in death) (%)":-2.3}
{"gene":"LOC442661","two-siRNA summed score (-2 to +2)":0,"mean protection from cisplatin (shift in death) (%)":26.4}
{"gene":"F11R","two-siRNA summed score (-2 to +2)":0,"mean protection from cisplatin (shift in death) (%)":-6}

Part of the list above in another layout.
RERGL: two-siRNA summed score (-2 to +2) = 0; mean protection from cisplatin (shift in death) (%) = 12.6
HOOK1: two-siRNA summed score (-2 to +2) = 0; mean protection from cisplatin (shift in death) (%) = 7.6

Additional records:
{"gene":"LOC440512","two-siRNA summed score (-2 to +2)":1,"mean protection from cisplatin (shift in death) (%)":11.2}
{"gene":"TMX4","two-siRNA summed score (-2 to +2)":0,"mean protection from cisplatin (shift in death) (%)":-2.2}
{"gene":"CHN2","two-siRNA summed score (-2 to +2)":0,"mean protection from cisplatin (shift in death) (%)":-3.3}
{"gene":"UBE2N","two-siRNA summed score (-2 to +2)":-1,"mean protection from cisplatin (shift in death) (%)":-15.7}
{"gene":"MYCN","two-siRNA summed score (-2 to +2)":1,"mean protection from cisplatin (shift in death) (%)":10.2}
{"gene":"XAB2","two-siRNA summed score (-2 to +2)":0,"mean protection from cisplatin (shift in death) (%)":0.1}
{"gene":"OR2T2","two-siRNA summed score (-2 to +2)":0,"mean protection from cisplatin (shift in death) (%)":-2}
{"gene":"MTG2","two-siRNA summed score (-2 to +2)":0,"mean protection from cisplatin (shift in death) (%)":-2.2}
{"gene":"LOC440085","two-siRNA summed score (-2 to +2)":0,"mean protection from cisplatin (shift in death) (%)":14.3}
{"gene":"MYO10","two-siRNA summed score (-2 to +2)":0,"mean protection from cisplatin (shift in death) (%)":16.8}
{"gene":"PERP","two-siRNA summed score (-2 to +2)":0,"mean protection from cisplatin (shift in death) (%)":11}
{"gene":"LOC442133","two-siRNA summed score (-2 to +2)":1,"mean protection from cisplatin (shift in death) (%)":10}
{"gene":"HMGCLL1","two-siRNA summed score (-2 to +2)":0,"mean protection from cisplatin (shift in death) (%)":4.3}
{"gene":"KIAA1586","two-siRNA summed score (-2 to +2)":0,"mean protection from cisplatin (shift in death) (%)":5.2}
{"gene":"LOC442456","two-siRNA summed score (-2 to +2)":0,"mean protection from cisplatin (shift in death) (%)":8}
{"gene":"LOC442397","two-siRNA summed score (-2 to +2)":0,"mean protection from cisplatin (shift in death) (%)":1.8}
{"gene":"PINLYP","two-siRNA summed score (-2 to +2)":1,"mean protection from cisplatin (shift in death) (%)":12.3}
{"gene":"GPS2P1","two-siRNA summed score (-2 to +2)":1,"mean protection from cisplatin (shift in death) (%)":6.9}
